Experimental findings from the supplement of paper PMC7024190 are described below.

Each structure is given as a SMILES string. Counter-ions that a name gives are not always drawn. This is one part of the list. Single values are uncertain here, since repeats match poorly.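 A first-round screen of about ten thousand compounds sought those raising reporter output, using human embryonic kidney cells briefly transfected with a plasmid carrying a Renilla luciferase gene driven by the HSV-TK promoter.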

The experiment concerns HEK 293FT. Nature of the experiment: log relative Renilla luciferase luminescence (reporter expression vs reference, reference not stated) (log (base not stated)); higher = higher recombinant reporter expression. The conditions noted are these: 10 µM; time after transfection 48 h.
As to `O=C([O-])[C@H]1/C(=C/CO)O[C@@H]2CC(=O)N21.[Li+]` [clavulanate lithium], the log is -0.0849. The same measure for `CC(=O)N[C@@H](CC(C)C)C(=O)O` [acetyl-l-leucine]: -0.0941.

For `Nc1nc(=O)c2nc(CNc3ccc(C(=O)N[C@@H](CCC(=O)O)C(=O)O)cc3)cnc2[nH]1` [folic acid], the log is -0.0435. The same measure for `C=CC[S+]([O-])C[C@H](N)C(=O)O` (mixture of isomers) [l(+/-)-alliin]: 0.04; for `Nc1nc(Cl)nc2c1ncn2[C@@H]1O[C@H](CO)[C@@H](O)[C@@H]1F` [clofarabine]: -0.524. The same measure for `COc1cc2ccc(=O)oc2c(OC)c1OC` [fraxidin methyl ether]: -0.0389; for `O=C1CN2Cc3c(ccc(Cl)c3Cl)N=C2N1` [anagrelide hydrochloride]: 0.0133. As for `CC(C)NCC(O)COc1ccc(COCCOC(C)C)cc1` (stereo unspecified) [bisoprolol fumarate], the log amounted to 0.0513. In the case of `Nc1nc(=S)c2ncn([C@@H]3O[C@H](CO)[C@@H](O)[C@H]3O)c2[nH]1` [thioguanosine] it was -0.112. `C[C@@]12CCc3occc3[C@H]1CC[C@@]13C[C@@H](CC[C@H]12)[C@@](O)(CO)C3` [cafestol]: the log amounted to 0.168. In the case of `CO/N=C(\C(=O)N[C@@H]1C(=O)N2C(C(=O)O)=C(CSc3nc(=O)c(O)nn3C)CS[C@H]12)c1csc(N)n1` [ceftriaxone sodium trihydrate] it was -0.0348; in that of `O=C(O)CS` [sodium thioglycolate], 0.0412; in that of `NC1(C(=O)O)CCCC1` [cycloleucine], 0.101.

Turning to `NCCCC[C@H](N[C@@H](CCc1ccccc1)C(=O)O)C(=O)N1CCC[C@H]1C(=O)O` [lisinopril], the log was -0.0112. The same measure for `CC(C)(C)NC[C@H](O)COc1nsnc1N1CCOCC1` [timolol maleate]: 0.083; for `C[C@]12CCC(=O)C=C1CC[C@@H]1[C@@H]2[C@@H](O)C[C@@]2(C)[C@H]1CC[C@]2(O)C(=O)COC(=O)CCC(=O)O` [hydrocortisone hemisuccinate]: -0.0162; for `CCOC(=O)[C@H](CCc1ccccc1)N[C@H]1CCc2ccccc2N(CC(=O)O)C1=O` [benazepril hydrochloride]: 0.0992. For the molecule `COC1=C(OC)C(=O)C(CCCCCCCCCCO)=C(C)C1=O` [idebenone], the log is -0.14. For the molecule `COc1cc(-c2coc3cc(O)c(OC)c(O)c3c2=O)cc(O)c1OC` [irigenin], the log came out at 0.0481. In the case of `CCOC(=O)OC(C)OC(=O)[C@@H]1N2C(=O)[C@@H](NC(=O)[C@H](N)c3ccccc3)[C@H]2SC1(C)C` (stereo partly specified) [bacampicillin hydrochloride] it was 0.0585; in that of `COc1ccc(CN(CCN(C)C)c2ccccn2)cc1` [pyrilamine maleate], -0.00743.
